Results from patent US20230398232A1, “Composition and Use of Alternatively Formatted Anti-Mesothelin Antibodies for the Treatment of Cancer” (Navrogen, Inc., priority 2020, published 2023).
Results are given in words; binding and its absence hold for the method and conditions named. Some results given as binding are weak or reduced against the parent protein; the word gives no strength.

The chains behind the UniProt entries cited, without tags or fusion partners. Where a name states a change or a piece, a line headed by the entry shows the natural chain unless it says otherwise. A line that says so, or that is headed by a name, gives the form on record, which may keep a tag or linker.
recombinant human mesothelin protein (Q13421, form named): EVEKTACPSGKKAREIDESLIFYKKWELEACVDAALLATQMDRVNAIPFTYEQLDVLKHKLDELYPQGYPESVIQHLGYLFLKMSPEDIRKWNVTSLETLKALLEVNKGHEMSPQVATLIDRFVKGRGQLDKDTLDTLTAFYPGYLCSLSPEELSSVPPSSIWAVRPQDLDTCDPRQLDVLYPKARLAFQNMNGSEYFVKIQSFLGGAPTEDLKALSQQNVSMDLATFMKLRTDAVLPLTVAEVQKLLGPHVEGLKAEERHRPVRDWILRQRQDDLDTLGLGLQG

Target: recombinant human mesothelin protein (human) (UniProt Q13421)
Assay: ELISA, plate coated with 1 µg/mL mesothelin, 2.5 µg/mL antibody

B1: MES-1 antibody (antibody, human IgG1, kappa, V domains shown)
VH: EVQLVESGGGLVQPGGSLRLSCAASGFDLGFYFYACWVRQAPGKGLEWVSCIYTAGSGSTYYASWAKGRFTISRDNSKNTLYLQMNSLRAEDTAVYYCARSTANTRSTYYLNLWGQGTLVTVSS
VL: DIQMTQSPSSLSASVGDRVTITCQASQRISSYLSWYQQKPGKVPKLLIYGASTLASGVPSRFSGSGSGTDFTLTISSLQPEDVATYYCQSYAYFDSNNWHAFGGGTKVEIKR
B1 was tested, and the binding was “binds”.
